PubChem BioAssay AID504786 – Drosophila RNAi Screening Center – 2011

Test: 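Knock-downs reducing HIF reporter induction by the iron chelator DFO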 (primary screen)
System: Drosophila S2 cells with a stable HIF luciferase reporter
Reagent: long dsRNA against Drosophila genes, about 0.2 µg dsRNA per well of a 384-well plate
Timing: three days of knock-down, then 20 h of DFO before reading
Challenge: desferrioxamine (DFO) at 100 µM, an iron chelator that mimics hypoxia, for 20 h
Measurement: 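HIF reporter luminescence in cells given 100 µM DFO for 20 h, using the mouse ldh-a hypoxia-response element, scored as per-plate z-scores; higher means greater loss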
Scale: z-score: higher = stronger loss of HIF reporter signal
The screen tested about 21,000 reagents; this is a random part of those with a known target gene and a result. 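Primary screen; positive scores mean lost reporter signal, so the sign may be inverted from the usual convention.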 Names joined by + are all predicted targets of the reagent.

| Gene | dsRNA | z-score, replicate 1 | z-score, replicate 2 | z-score, replicate 3 | z-score, replicate 4 |
| --- | --- | --- | --- | --- | --- |
| Ccp84Ac | DRSC12588 | -0.3 | -0.6 | – | – |
| rush (rush hour) | DRSC18568 | 0.7 | 0.3 | – | – |
| CG7423 | DRSC20044 | -0.2 | -0.6 | – | – |
| CG30380 | DRSC05069 | -0.1 | -0.1 | – | – |
| CG15011 | DRSC08464 | -0.2 | -0.3 | – | – |
| Rbpn-5 (Rabaptin-5) | DRSC04440 | -0.3 | -0.6 | – | – |
| CG16826 | DRSC02527 | -0.1 | 0 | – | – |
| SLIRP1 + anox | DRSC20542 | -0.3 | -0.6 | – | – |
| AANATL5 (Arylalkylamine N-acetyltransferase-like 5) | DRSC05994 | -0.3 | -0.7 | – | – |
| CG2818 | DRSC00540 | -0.4 | -0.3 | – | – |
| IP3K2 (Inositol 1,4,5-triphosphate kinase 2) | DRSC19500 | -0.1 | -0.4 | 0 | 0.2 |
| IP3K2 (Inositol 1,4,5-triphosphate kinase 2) | DRSC19747 | -0.2 | -0.2 | – | – |
| CG31388 | DRSC15254 | -0.1 | -0.2 | – | – |
| Tace | DRSC16340 | -0.3 | 0.5 | – | – |
| CG13562 | DRSC04200 | -0.5 | -0.5 | – | – |
| Sgsh (N-sulfoglucosamine sulfohydrolase) | DRSC14771 | 0.1 | 0.2 | – | – |
| CG8952 | DRSC20133 | -0.3 | -0.3 | – | – |
| ms(3)K81 (male sterile (3) K81) | DRSC14746 | -0.3 | 0 | – | – |
| CG31781 (retired record) | DRSC02431 | -0.3 | -0.3 | – | – |
| CG31781 (retired record) | DRSC02432 | -0.3 | -0.2 | – | – |
| CycC (Cyclin C) | DRSC16619 | 0 | 0.4 | – | – |
| Fib (Fibrillarin) | DRSC04614 | 1 | 2.5 | – | – |
| hng1 (hinge1) | DRSC04555 | -0.3 | -0.4 | – | – |
| Ccdc39 (Coiled-coil domain containing protein 39) | DRSC12286 | -0.3 | -0.2 | – | – |
| shu (shutdown) | DRSC04484 | -0.1 | -0.4 | – | – |
| CG15922 | DRSC15128 | 0.6 | -0.4 | – | – |
| ACOX1 (acyl-CoA oxidase 1) | DRSC05941 | -0.2 | 0 | – | – |
| gkt (glaikit) | DRSC00821 | -0.3 | -0.1 | – | – |
| CG12084 | DRSC08247 | -0.3 | 0.1 | – | – |
| CG10366 | DRSC02046 | -0.2 | -0.4 | – | – |
| CG5916 | DRSC15917 | -0.2 | -0.1 | – | – |
| CG14495 | DRSC06466 | -0.3 | 0 | – | – |
| Golgin84 (Golgin-84) | DRSC15269 | -0.4 | 0.3 | – | – |
| Fer3HCH (Ferritin 3 heavy chain homologue) | DRSC19892 | -0.3 | -1.1 | – | – |
| Kr-h1 (Kruppel homolog 1) | DRSC00908 | -0.1 | 0.5 | – | – |
| Kr-h1 (Kruppel homolog 1) | DRSC03355 | -0.1 | 0.1 | – | – |
| tsr (twinstar) | DRSC04718 | 1.2 | 2 | – | – |
| CG33489 | DRSC10588 | -0.3 | -0.5 | – | – |
| Jon25Biii (Jonah 25Biii) | DRSC03115 | -0.1 | 0 | – | – |
| CG3770 | DRSC04416 | 0 | -0.7 | – | – |
| CG7910 | DRSC16341 | 0.1 | -0.2 | – | – |
| CG8539 | DRSC10988 | -0.3 | -0.6 | – | – |
| Mco3 (Multicopper oxidase 3) | DRSC15926 | 0 | -0.7 | – | – |
| Pms2 | DRSC07511 | -0.2 | -0.1 | – | – |
| dsh (dishevelled) | DRSC19803 | -0.1 | 1.2 | – | – |
| PIP82 | DRSC18694 | 0 | 0.1 | – | – |
| CG3649 | DRSC04400 | -0.3 | -0.3 | – | – |
| CG11345 | DRSC08176 | 0 | -0.5 | – | – |
| Spc25 | DRSC14164 | 0.6 | 0.1 | – | – |
| CG2063 | DRSC06811 | -0.1 | 1.1 | – | – |
| CG14759 | DRSC06494 | -0.2 | -0.1 | – | – |
| Npc2d (Niemann-Pick type C-2d) | DRSC14551 | -0.2 | 0.1 | – | – |
| CG8501 | DRSC07198 | -0.1 | -0.3 | – | – |
| CG14982 | DRSC08440 | 3.2 | 0.9 | – | – |
| CG15024 | DRSC08478 | -0.4 | -0.5 | – | – |
| PMCA (plasma membrane calcium ATPase) | DRSC17113 | -0.4 | -0.3 | – | – |
| PMCA (plasma membrane calcium ATPase) | DRSC17114 | -0.9 | -1 | – | – |
| PMCA (plasma membrane calcium ATPase) | DRSC17154 | -0.5 | -1.5 | – | – |
| CG2854 | DRSC18595 | -0.1 | 0.5 | – | – |
| SmydA-7 (SET and MYND domain containing, arthropod-specific, member 7) | DRSC07340 | -0.2 | -0.2 | – | – |
| CG4911 | DRSC10456 | -0.2 | -0.5 | – | – |
| Sp1 | DRSC17622 | -0.2 | -0.3 | – | – |
| Sp1 | DRSC18717 | -0.3 | -0.4 | – | – |
| lgs (legless) | DRSC17152 | -0.1 | -0.1 | – | – |
| S-Lap1 (Sperm-Leucylaminopeptidase 1) | DRSC10627 | -0.2 | -0.7 | – | – |
| nub (nubbin) | DRSC01260 | -0.3 | -0.4 | – | – |
| nub (nubbin) | DRSC02498 | -0.2 | -0.4 | – | – |
| nub (nubbin) | DRSC02499 | -0.2 | -0.3 | – | – |
| nub (nubbin) | DRSC03583 | -0.3 | -0.9 | – | – |
| zormin | DRSC07969 | -0.3 | 0 | – | – |
| zormin | DRSC08210 | -0.2 | -0.4 | – | – |
| zormin | DRSC08212 | -0.5 | -0.7 | – | – |
| zormin | DRSC08213 | -0.3 | -0.4 | – | – |
| zormin | DRSC08297 | -0.3 | -0.7 | – | – |
| zormin | DRSC08571 | -0.3 | -0.4 | – | – |
| CG3819 | DRSC10378 | -0.1 | 0.1 | – | – |
| CG13614 | DRSC14617 | -0.4 | -0.4 | – | – |
| CG5515 | DRSC15825 | -0.2 | -0.1 | – | – |
| fest (wurstfest) | DRSC07349 | 1.4 | 0.9 | – | – |
| Dim1 | DRSC00563 | 2.6 | 3 | – | – |
| LanB2 (Laminin B2) | DRSC11208 | -0.2 | -0.3 | – | – |
| CG13884 | DRSC08354 | -0.3 | 0.7 | – | – |
| Burs (Bursicon) | DRSC14595 | -0.2 | -0.5 | – | – |
